Results taken from the supplement of paper PMC10849652.
Some of the results follow. Residues, ends and D or L forms follow the SMILES beside them. *: point of attachment. Cbz = O=C(OCc1ccccc1)*

Chains of the proteins cited; added tags and fusions are not shown. Lines headed by an entry give the natural chain unless they say otherwise; changes in a name come on top.
UniProt Q8NBJ4: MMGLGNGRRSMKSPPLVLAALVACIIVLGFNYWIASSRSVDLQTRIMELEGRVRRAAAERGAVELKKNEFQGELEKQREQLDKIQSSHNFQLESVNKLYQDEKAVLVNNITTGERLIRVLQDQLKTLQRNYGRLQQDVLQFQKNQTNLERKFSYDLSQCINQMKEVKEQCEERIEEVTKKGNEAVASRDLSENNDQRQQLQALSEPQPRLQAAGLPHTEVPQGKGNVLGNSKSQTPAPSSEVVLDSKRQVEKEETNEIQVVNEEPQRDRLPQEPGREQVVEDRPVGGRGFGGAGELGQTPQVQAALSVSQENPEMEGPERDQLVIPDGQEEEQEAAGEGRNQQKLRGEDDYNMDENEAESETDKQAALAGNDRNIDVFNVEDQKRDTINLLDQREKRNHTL
UniProt O75420: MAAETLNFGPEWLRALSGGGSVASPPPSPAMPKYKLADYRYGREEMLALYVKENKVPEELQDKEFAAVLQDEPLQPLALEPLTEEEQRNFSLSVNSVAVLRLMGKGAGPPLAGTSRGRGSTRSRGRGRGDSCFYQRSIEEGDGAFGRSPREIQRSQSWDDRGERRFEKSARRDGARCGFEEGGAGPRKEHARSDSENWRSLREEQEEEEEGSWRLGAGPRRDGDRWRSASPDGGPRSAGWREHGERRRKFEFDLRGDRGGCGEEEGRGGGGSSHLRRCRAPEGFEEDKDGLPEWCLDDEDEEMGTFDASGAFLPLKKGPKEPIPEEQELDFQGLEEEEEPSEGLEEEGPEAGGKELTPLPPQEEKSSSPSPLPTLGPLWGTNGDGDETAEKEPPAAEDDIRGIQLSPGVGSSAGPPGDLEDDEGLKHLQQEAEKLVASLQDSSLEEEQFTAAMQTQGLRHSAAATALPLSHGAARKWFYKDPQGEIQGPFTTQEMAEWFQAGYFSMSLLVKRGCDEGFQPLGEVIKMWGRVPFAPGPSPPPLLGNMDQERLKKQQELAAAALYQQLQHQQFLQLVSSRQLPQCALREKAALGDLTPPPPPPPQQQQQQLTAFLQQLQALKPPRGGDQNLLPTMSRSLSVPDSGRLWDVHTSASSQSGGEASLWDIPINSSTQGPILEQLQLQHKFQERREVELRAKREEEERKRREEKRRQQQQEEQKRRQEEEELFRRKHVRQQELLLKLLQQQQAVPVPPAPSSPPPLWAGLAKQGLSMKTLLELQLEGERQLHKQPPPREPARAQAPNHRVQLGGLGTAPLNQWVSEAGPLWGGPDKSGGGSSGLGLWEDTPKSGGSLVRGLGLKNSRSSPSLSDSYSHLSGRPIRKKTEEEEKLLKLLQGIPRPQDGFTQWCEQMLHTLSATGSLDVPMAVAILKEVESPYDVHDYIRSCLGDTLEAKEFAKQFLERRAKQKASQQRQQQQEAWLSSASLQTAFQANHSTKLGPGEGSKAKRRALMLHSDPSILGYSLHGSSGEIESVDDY
UniProt Q53GS7: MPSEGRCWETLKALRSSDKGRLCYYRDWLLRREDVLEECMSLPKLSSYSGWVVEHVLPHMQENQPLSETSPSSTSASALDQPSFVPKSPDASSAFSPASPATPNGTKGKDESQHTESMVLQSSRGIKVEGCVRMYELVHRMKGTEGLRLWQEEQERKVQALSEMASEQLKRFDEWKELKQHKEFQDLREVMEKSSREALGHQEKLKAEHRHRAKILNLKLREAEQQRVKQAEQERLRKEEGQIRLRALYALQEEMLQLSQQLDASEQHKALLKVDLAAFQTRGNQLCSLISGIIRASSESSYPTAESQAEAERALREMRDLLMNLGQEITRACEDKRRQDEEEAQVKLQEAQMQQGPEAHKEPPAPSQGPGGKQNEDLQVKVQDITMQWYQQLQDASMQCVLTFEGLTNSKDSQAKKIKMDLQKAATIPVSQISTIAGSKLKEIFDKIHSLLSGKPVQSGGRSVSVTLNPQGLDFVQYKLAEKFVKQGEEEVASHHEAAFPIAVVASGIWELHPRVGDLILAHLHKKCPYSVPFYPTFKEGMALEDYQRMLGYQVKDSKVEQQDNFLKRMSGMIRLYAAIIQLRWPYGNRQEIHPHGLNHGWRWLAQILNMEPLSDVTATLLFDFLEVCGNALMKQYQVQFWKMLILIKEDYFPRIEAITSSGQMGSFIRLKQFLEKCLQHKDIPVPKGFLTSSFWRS
UniProt Q15743: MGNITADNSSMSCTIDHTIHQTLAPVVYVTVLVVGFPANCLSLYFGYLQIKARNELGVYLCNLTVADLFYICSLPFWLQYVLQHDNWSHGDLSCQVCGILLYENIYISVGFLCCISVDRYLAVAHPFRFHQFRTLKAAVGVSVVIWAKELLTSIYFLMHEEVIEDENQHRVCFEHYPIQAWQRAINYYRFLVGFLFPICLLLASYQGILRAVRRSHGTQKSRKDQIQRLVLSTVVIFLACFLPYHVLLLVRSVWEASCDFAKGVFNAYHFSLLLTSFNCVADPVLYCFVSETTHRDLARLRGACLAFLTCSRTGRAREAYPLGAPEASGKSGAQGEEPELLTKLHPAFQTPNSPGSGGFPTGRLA
UniProt Q9NZD2: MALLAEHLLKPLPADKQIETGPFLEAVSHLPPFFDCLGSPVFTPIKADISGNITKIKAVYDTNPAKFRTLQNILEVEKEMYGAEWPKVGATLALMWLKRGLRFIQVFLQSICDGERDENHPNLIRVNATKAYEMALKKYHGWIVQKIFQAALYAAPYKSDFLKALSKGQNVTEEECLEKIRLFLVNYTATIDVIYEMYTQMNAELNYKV
UniProt Q9NPR9: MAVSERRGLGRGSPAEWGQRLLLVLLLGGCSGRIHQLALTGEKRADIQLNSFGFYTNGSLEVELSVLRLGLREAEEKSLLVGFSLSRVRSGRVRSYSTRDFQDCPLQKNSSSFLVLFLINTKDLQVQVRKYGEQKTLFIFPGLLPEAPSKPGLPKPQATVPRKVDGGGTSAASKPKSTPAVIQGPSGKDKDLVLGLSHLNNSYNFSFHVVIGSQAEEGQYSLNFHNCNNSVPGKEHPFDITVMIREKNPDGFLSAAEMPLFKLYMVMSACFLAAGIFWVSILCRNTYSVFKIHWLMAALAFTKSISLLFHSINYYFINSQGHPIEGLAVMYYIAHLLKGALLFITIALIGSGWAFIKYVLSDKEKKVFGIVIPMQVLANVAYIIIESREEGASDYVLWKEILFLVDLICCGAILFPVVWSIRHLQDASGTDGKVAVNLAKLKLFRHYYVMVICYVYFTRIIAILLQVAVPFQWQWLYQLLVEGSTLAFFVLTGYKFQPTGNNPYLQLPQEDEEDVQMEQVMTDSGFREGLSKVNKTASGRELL
UniProt Q14749: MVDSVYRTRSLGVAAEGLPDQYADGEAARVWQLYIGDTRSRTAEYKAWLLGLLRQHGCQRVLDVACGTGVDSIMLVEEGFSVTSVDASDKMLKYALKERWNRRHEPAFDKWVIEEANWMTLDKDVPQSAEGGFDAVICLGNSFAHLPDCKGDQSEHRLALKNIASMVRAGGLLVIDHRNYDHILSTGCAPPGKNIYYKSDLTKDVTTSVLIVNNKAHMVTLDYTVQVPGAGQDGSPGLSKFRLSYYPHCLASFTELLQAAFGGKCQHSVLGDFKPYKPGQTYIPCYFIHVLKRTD
UniProt P17302, whole entry, looked up: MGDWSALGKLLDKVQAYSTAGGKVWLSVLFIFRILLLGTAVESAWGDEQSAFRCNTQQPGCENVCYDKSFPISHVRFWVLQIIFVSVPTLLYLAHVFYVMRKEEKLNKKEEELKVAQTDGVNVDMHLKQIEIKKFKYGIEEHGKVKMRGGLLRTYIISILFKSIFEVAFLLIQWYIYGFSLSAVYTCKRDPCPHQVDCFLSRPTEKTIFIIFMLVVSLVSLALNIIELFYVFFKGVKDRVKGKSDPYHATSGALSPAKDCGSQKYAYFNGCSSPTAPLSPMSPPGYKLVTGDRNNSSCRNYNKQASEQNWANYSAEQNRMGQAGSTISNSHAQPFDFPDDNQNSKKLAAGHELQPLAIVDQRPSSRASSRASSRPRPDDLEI
UniProt Q5T7V8: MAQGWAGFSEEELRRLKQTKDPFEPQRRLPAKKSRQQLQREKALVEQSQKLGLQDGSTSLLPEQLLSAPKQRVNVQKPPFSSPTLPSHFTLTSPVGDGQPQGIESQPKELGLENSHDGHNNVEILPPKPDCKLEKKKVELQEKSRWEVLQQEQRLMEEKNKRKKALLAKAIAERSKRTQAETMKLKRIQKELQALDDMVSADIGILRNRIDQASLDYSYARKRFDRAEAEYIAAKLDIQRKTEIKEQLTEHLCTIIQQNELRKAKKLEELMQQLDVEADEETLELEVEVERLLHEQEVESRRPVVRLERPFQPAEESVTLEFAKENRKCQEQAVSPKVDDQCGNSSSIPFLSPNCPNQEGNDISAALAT
UniProt Q9BRR8: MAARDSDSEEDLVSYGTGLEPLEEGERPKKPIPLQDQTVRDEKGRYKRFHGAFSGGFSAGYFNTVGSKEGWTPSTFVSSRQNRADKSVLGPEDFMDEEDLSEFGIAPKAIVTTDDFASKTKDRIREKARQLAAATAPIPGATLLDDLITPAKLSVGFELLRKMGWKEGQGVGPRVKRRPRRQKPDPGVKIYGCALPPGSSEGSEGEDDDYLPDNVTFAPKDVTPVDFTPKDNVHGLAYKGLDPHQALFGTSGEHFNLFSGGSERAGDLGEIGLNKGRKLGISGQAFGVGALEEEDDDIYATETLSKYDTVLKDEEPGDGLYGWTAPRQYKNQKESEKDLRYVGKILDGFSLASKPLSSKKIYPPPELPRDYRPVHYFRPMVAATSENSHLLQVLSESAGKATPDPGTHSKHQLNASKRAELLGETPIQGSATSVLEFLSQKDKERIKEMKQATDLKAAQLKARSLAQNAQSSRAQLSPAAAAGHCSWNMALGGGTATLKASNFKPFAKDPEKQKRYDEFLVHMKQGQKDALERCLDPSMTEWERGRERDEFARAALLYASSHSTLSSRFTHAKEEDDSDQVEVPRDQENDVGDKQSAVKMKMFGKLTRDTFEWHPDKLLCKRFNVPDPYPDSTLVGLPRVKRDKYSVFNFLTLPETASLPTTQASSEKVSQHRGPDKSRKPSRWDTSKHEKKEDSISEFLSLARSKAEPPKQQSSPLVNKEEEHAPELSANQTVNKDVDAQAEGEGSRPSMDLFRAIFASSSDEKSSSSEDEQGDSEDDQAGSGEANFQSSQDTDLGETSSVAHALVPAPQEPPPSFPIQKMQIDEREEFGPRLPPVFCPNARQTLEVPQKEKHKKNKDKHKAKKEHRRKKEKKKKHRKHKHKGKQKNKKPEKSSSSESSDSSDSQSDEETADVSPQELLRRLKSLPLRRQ
UniProt P21695: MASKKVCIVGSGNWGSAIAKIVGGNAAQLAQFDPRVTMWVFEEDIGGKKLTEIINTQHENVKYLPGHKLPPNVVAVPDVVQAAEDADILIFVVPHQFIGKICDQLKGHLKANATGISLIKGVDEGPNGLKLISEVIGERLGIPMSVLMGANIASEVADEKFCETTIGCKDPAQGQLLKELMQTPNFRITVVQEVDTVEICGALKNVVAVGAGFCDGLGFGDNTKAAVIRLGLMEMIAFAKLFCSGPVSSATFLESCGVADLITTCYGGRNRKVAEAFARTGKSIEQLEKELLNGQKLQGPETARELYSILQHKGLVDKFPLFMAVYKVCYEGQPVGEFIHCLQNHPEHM
UniProt Q9HCL2: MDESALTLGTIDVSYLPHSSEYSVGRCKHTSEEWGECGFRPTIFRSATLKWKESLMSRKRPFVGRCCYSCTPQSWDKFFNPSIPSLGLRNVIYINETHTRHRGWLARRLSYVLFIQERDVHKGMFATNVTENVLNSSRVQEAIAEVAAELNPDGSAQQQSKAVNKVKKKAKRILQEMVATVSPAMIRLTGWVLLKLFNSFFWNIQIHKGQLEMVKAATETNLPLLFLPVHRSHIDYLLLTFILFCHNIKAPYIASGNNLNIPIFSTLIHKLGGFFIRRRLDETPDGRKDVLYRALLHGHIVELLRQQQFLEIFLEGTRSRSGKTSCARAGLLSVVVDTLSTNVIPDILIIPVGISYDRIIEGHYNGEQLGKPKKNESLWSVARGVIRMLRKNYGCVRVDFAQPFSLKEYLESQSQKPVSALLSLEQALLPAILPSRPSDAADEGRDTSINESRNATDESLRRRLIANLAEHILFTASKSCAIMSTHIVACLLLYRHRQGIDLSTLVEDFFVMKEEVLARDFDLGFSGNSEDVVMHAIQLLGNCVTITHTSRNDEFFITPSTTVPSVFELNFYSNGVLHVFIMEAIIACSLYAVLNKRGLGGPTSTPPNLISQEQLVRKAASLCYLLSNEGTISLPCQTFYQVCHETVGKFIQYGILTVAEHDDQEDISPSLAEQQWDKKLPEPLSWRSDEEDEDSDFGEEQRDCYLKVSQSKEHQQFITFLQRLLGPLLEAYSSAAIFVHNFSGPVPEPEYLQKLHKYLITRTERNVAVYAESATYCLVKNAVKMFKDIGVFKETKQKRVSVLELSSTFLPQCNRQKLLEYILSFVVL

What was measured:
Assay in all cases: log2 fold change, soluble protein after heating vs DMSO (PISA); higher = thermal stabilisation; K562 cells, 10 uM, 30 min; active = over 0.2 and 3.5 SD of the protein, either way, in both replicates (recomputed)
ibrutinib = compound: C=CC(=O)N1CCC[C@@H](n2nc(-c3ccc(Oc4ccccc4)cc3)c3c(N)ncnc32)C1 [ibrutinib]
In short: (§1)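 K562 cells at 2×10^6 cells/mL were given 10 μM compound for 30 min. Aliquots then went through 3 min of heating across 48°C-58°C, were pooled, and were extracted in PBS with 0.5% NP-40 at 4°C, and the supernatant after 21,000xg for 90 min was quantified by TMTpro 16plex LC-MS/MS with channel sums equalised. Thermal stability relative to control samples, from duplicates, is given as log2 fold change.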

ralimetinib = compound: CC(C)(C)Cn1c(N)nc2ccc(-c3[nH]c(C(C)(C)C)nc3-c3ccc(F)cc3)nc21 [ralimetinib]
In short: as §1

[1] = compound: CC(C)C1=C2N=C(C=C(N2N=C1)NCC3=CC=CC=C3)NCCCCCCN
In short: as §1

[2] = compound: CC(C)C[C@@H](C=O)NC(=O)[C@H](CC(C)C)NC(=O)[C@H](CC(C)C)NC(=O)OCc1ccccc1
In short: as §1

[3] = compound: CC1=C(C(CC(=O)N1)C2=CC=C(C=C2)C(F)(F)F)C(=O)NC3=C(C=C4C(=C3)C=NN4)F
In short: as §1

[4] = compound: CC1=C(C2=C(C=C1)C(=O)C3=CC=CC=C3N2CCCN)C
In short: as §1

[5] = compound: CC1=C(C=C(C=C1)NC(=O)C2=CC(=CC=C2)C(C)(C)C#N)NC3=CC4=C(C=C3)N=CN(C4=O)C
In short: as §1

[6] = compound: CC1=C(C=C(C=C1)NC(=O)C2=CC(=CC=C2)N(C)C)NC(=O)C3=CC=C(C=C3)O
In short: as §1

[7] = compound: CC1=CC=C(C=C1)SC2=C3C=C(SC3=CN=C2)C(=O)N
In short: as §1

vemurafenib = compound: CCCS(=O)(=O)Nc1ccc(F)c(C(=O)c2c[nH]c3ncc(-c4ccc(Cl)cc4)cc23)c1F [vemurafenib]
In short: as §1

[8] = compound: CCCS(=O)(=O)Nc1ccc(F)c(C(=O)c2c[nH]c3ncc(Cl)cc23)c1F
In short: as §1

[9] = compound: CCCc1cc(C)[nH]c(=O)c1CNC(=O)c1cc(-c2ccnc(N3CCN(C)CC3)c2)cc2c1cnn2C(C)C
In short: as §1

givinostat = compound: CCN(CC)Cc1ccc2cc(COC(=O)Nc3ccc(C(=O)NO)cc3)ccc2c1 [givinostat]
In short: as §1

barasertib = compound: CCN(CCCOc1ccc2c(Nc3cc(CC(=O)Nc4cccc(F)c4)[nH]n3)ncnc2c1)CCOP(=O)(O)O [barasertib]
In short: as §1

IRAK-1-4 Inhibitor I = compound: C1COCCN1CCN2C3=CC=CC=C3N=C2NC(=O)C4=CC(=CC=C4)[N+](=O)[O-] [IRAK-1-4 Inhibitor I]
In short: as §1

[10] = compound: CC(C)(O)CC(=O)NCCn1ccc2ncnc(Nc3ccc(Oc4cccc(C(F)(F)F)c4)c(Cl)c3)c21
In short: as §1

pinometostat = compound: CC(C)N(C[C@H]1O[C@@H](n2cnc3c(N)ncnc32)[C@H](O)[C@@H]1O)[C@H]1C[C@@H](CCc2nc3cc(C(C)(C)C)ccc3[nH]2)C1 [pinometostat]
In short: as §1

[11] = compound: CC1=NC(=CC=C1)C2=C(N=C(N2)C(C)(C)C)C3=CC4=NC=CN=C4C=C3
In short: as §1

Nexturastat A = compound: CCCCN(Cc1ccc(C(=O)NO)cc1)C(=O)Nc1ccccc1 [Nexturastat A]
In short: as §1

[12] = compound: CC(=O)c1cnc2ccc(-c3cc(Cl)c(O)c(Cl)c3)nc2c1N[C@H]1CC[C@H](CN(C)C)CC1
In short: as §1

GOLM1 (UniProt Q8NBJ4)
log2 fold change (ibrutinib): inactive: 0.027
log2 fold change (ralimetinib): inactive: -0.111
log2 fold change [1]: inactive: 0.087
log2 fold change [2]: inactive: 0.122
log2 fold change [3]: inactive: 0.102
log2 fold change [4]: inactive: -0.13
log2 fold change [5]: inactive: -0.118
log2 fold change [6]: inactive: 0.142
log2 fold change [7]: inactive: 0.086
log2 fold change (vemurafenib): inactive: 0.045
log2 fold change [8]: inactive: -0.017
log2 fold change [9]: inactive: -0.311
log2 fold change (givinostat): inactive: 0.086
log2 fold change (barasertib): inactive: 0.144

GIGYF1 (UniProt O75420)
log2 fold change (IRAK-1-4 Inhibitor I): inactive: -0.028
log2 fold change (ralimetinib): inactive: 0.03
log2 fold change [10]: inactive: -0.117
log2 fold change [2]: inactive: 0.022
log2 fold change (pinometostat): inactive: 0.091
log2 fold change [5]: inactive: -0.103
log2 fold change [6]: inactive: 0.036
log2 fold change [7]: inactive: -0.002
log2 fold change [11]: inactive: 0.05
log2 fold change (Nexturastat A): inactive: 0.128
log2 fold change [8]: inactive: -0.166

GLE1 (UniProt Q53GS7)
log2 fold change [12]: inactive: 0.003

GPR68 (UniProt Q15743)
log2 fold change (IRAK-1-4 Inhibitor I): inactive: -0.146
log2 fold change [12]: inactive: -0.135
log2 fold change (ralimetinib): inactive: -0.073
log2 fold change [2]: inactive: 0.141
log2 fold change (pinometostat): inactive: 0.134
log2 fold change [6]: inactive: -0.041
log2 fold change [11]: inactive: -0.063

GLTP (UniProt Q9NZD2)
log2 fold change (ibrutinib): inactive: 0.15
log2 fold change [12]: inactive: 0.098
log2 fold change (ralimetinib): inactive: 0.012
log2 fold change [1]: inactive: 0.081
log2 fold change [2]: inactive: -0.054
log2 fold change [3]: inactive: -0.017
log2 fold change [4]: inactive: 0.096
log2 fold change [5]: inactive: 0.135
log2 fold change [6]: inactive: -0.064
log2 fold change [7]: inactive: 0.037
log2 fold change (vemurafenib): inactive: 0.031
log2 fold change [8]: inactive: -0.062
log2 fold change [9]: inactive: -0.052
log2 fold change (givinostat): inactive: -0.04
log2 fold change (barasertib): inactive: 0.099

GPR108 (UniProt Q9NPR9)
log2 fold change (ibrutinib): inactive: 0.035
log2 fold change [12]: inactive: -0.048
log2 fold change (ralimetinib): inactive: 0.082
log2 fold change [10]: inactive: 0.005
log2 fold change [1]: inactive: -0.065
log2 fold change [2]: inactive: 0.125
log2 fold change [3]: inactive: -0.015
log2 fold change [4]: inactive: 0.012
log2 fold change [5]: inactive: -0.026
log2 fold change [6]: inactive: -0.011
log2 fold change [7]: inactive: 0.055
log2 fold change (Nexturastat A): inactive: 0.083
log2 fold change (vemurafenib): inactive: -0.056
log2 fold change [8]: inactive: -0.041
log2 fold change [9]: inactive: -0.113
log2 fold change (givinostat): inactive: 0.028
log2 fold change (barasertib): inactive: -0.016

GNMT (UniProt Q14749)
log2 fold change (ibrutinib): inactive: 0.107
log2 fold change [12]: inactive: -0.069
log2 fold change (ralimetinib): inactive: -0.044
log2 fold change [1]: inactive: 0.032
log2 fold change [2]: inactive: -0.055
log2 fold change [3]: inactive: -0.167
log2 fold change [4]: inactive: -0.127
log2 fold change [5]: inactive: -0.024
log2 fold change [6]: inactive: -0.047
log2 fold change [7]: inactive: 0.107
log2 fold change (vemurafenib): inactive: 0.144
log2 fold change [8]: inactive: -0.109
log2 fold change [9]: inactive: -0.037
log2 fold change (givinostat): inactive: -0.191
log2 fold change (barasertib): inactive: -0.044

GJA1 (UniProt P17302)
log2 fold change (ibrutinib): inactive: 0.103
log2 fold change (barasertib): inactive: 0.078

GORAB (UniProt Q5T7V8)
log2 fold change (ibrutinib): inactive: -0.241
log2 fold change (ralimetinib): inactive: -0.208
log2 fold change [1]: inactive: -0.111
log2 fold change [2]: inactive: -0.222
log2 fold change [3]: inactive: 0.173
log2 fold change [4]: inactive: 0.143
log2 fold change [5]: inactive: -0.006
log2 fold change [6]: inactive: -0.029
log2 fold change [7]: inactive: 0.023
log2 fold change (vemurafenib): inactive: 0.07
log2 fold change [8]: inactive: 0.115
log2 fold change (givinostat): inactive: 0.096
log2 fold change (barasertib): inactive: 0.2

GPATCH1 (UniProt Q9BRR8)
log2 fold change [10]: inactive: -0.041
log2 fold change [1]: inactive: -0.101
log2 fold change [4]: inactive: 0.058
log2 fold change [5]: inactive: -0.171
log2 fold change [7]: inactive: -0.045
log2 fold change (Nexturastat A): inactive: -0.013
log2 fold change (vemurafenib): inactive: -0.059
log2 fold change [8]: inactive: -0.06
log2 fold change (givinostat): inactive: -0.187

GIT1 isoform 3 (UniProt Q9Y2X7)
log2 fold change (IRAK-1-4 Inhibitor I): inactive: -0.113
log2 fold change [12]: inactive: -0.083
log2 fold change (ralimetinib): inactive: -0.161
log2 fold change [10]: inactive: -0.218
log2 fold change [2]: inactive: 0.034
log2 fold change (pinometostat): inactive: 0.204
log2 fold change [5]: inactive: 0.052
log2 fold change [6]: inactive: 0.023
log2 fold change [7]: inactive: -0.024
log2 fold change [11]: inactive: -0.158
log2 fold change (Nexturastat A): inactive: 0.14
log2 fold change [8]: inactive: -0.032
log2 fold change [9]: inactive: 0.081

GPD1 (UniProt P21695)
log2 fold change (ibrutinib): inactive: 0.059
log2 fold change [12]: inactive: -0.066
log2 fold change (ralimetinib): inactive: -0.141
log2 fold change [10]: inactive: 0.079
log2 fold change [1]: inactive: 0.268
log2 fold change [2]: inactive: -0.051
log2 fold change [4]: inactive: 0.009
log2 fold change [5]: inactive: 0.011
log2 fold change [6]: inactive: -0.046
log2 fold change [7]: inactive: 0.021
log2 fold change (Nexturastat A): active: 0.653
log2 fold change (vemurafenib): inactive: 0.02
log2 fold change [8]: inactive: -0.042
log2 fold change [9]: inactive: -0.34
log2 fold change (givinostat): inactive: 0.514
log2 fold change (barasertib): inactive: 0.062

GPI (UniProt P06744)
log2 fold change (ibrutinib): inactive: -0.003
log2 fold change [12]: inactive: -0.039
log2 fold change (ralimetinib): inactive: -0.083
log2 fold change [10]: inactive: 0.016
log2 fold change [1]: inactive: 0.022
log2 fold change [2]: inactive: -0.029
log2 fold change (pinometostat): inactive: -0.043
log2 fold change [3]: inactive: -0.002
log2 fold change [4]: inactive: 0.001
log2 fold change [5]: inactive: 0.009
log2 fold change [6]: inactive: 0.004
log2 fold change [7]: inactive: 0.012
log2 fold change [11]: inactive: 0.011
log2 fold change (Nexturastat A): inactive: -0.106
log2 fold change (vemurafenib): inactive: 0.024
log2 fold change [8]: inactive: 0.004
log2 fold change [9]: inactive: -0.017
log2 fold change (givinostat): inactive: -0.005
log2 fold change (barasertib): inactive: 0.033

GPAM (UniProt Q9HCL2)
log2 fold change (IRAK-1-4 Inhibitor I): inactive: 0.229
log2 fold change [12]: inactive: -0.176
log2 fold change (ralimetinib): inactive: 0.136
log2 fold change [10]: inactive: 0.059
log2 fold change [1]: inactive: -0.074
log2 fold change [2]: inactive: 0.121
log2 fold change (pinometostat): inactive: -0.285
log2 fold change [3]: inactive: -0.037
log2 fold change [4]: inactive: -0.032
log2 fold change [5]: inactive: -0.113
log2 fold change [6]: inactive: -0.015
log2 fold change [7]: inactive: -0.069
log2 fold change [11]: inactive: -0.259
log2 fold change (Nexturastat A): inactive: -0.08
log2 fold change [8]: inactive: 0.041
log2 fold change (givinostat): inactive: 0.035
